Experimental data: PubChem BioAssay AID1259308 (NCATS, 2017)
This is a random part of about 59,000 reagents. About 1,510 of all reagents (2.6%) count as active. 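Calls use total luciferase alone and ignore viability, so some active siRNAs may act by altering cell number.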 Reagents against one gene are numbered here. Not all columns of the deposit are shown.

Screen: 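Candidate targets for better recombinant protein yield in mammalian cells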 (primary screen)
System: human HEK293 embryonic kidney cells stably expressing firefly luciferase (HEK-CMV-Luc2-Hygro)
Reagents: single siRNA against human genes, 0.8 pmol siRNA per well
Timing: 72 h
Detection: 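Reporter luminescence and viable-cell signal on separate replicate plates, given as percent of non-targeting control and median/MAD z-scores, plus per-cell luciferase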
Scale: total luciferase, z-score and total luciferase, % of control: higher = more reporter protein produced; luciferase per cell, z-score: higher = more reporter output per viable cell
Active means: 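Active when the median/MAD z-score for overall luciferase is greater than 3; a gene was taken forward for validation with new siRNAs if at least two of its three siRNAs passed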
Calls: active = raised luciferase; inactive = no rise

target gene | reagent no. | total luciferase, z-score | total luciferase, % of control | luciferase per cell, z-score | Outcome
CSTPP1 | 1 | -0.891 | 64.2 | -1.65 | inactive
CSTPP1 | 2 | -0.355 | 74.8 | -0.55 | inactive
CSTPP1 | 3 | 2.05 | 123 | 1.42 | inactive
TPM2 | 1 | 3.64 | 154 | 3.1 | active
TPM2 | 2 | -0.535 | 71.2 | 0.163 | inactive
TPM2 | 3 | -0.649 | 69 | -0.722 | inactive
COMMD3 | 1 | 0.194 | 85.7 | 0.224 | inactive
COMMD3 | 2 | -0.783 | 66.3 | -1.04 | inactive
COMMD3 | 3 | -0.241 | 77.1 | -0.425 | inactive
TGFB1 | 1 | -0.155 | 78.8 | -0.41 | inactive
TGFB1 | 2 | 1.04 | 103 | 0.563 | inactive
TGFB1 | 3 | -1.27 | 56.7 | 0.13 | inactive
WDR70 | 1 | 0.427 | 90.4 | 0.11 | inactive
WDR70 | 2 | 2.38 | 129 | 1.58 | inactive
WDR70 | 3 | -0.0757 | 80.4 | 0.42 | inactive
MORN3 | 1 | -1.93 | 43.5 | -2.19 | inactive
MORN3 | 2 | 0.619 | 94.2 | 1.56 | inactive
MORN3 | 3 | -0.206 | 77.8 | 0.42 | inactive
BAHCC1 | 1 | 1.37 | 109 | 0.892 | inactive
BAHCC1 | 2 | 3.16 | 145 | 2.51 | active
BAHCC1 | 3 | -0.458 | 72.8 | -0.308 | inactive
THEM5 | 1 | -0.758 | 66.8 | -0.922 | inactive
THEM5 | 2 | -1.08 | 60.4 | -0.611 | inactive
THEM5 | 3 | -1.06 | 60.9 | -1.29 | inactive
SH3YL1 | 1 | 0.0484 | 82.8 | 0.665 | inactive
SH3YL1 | 2 | 0.701 | 95.8 | 0.111 | inactive
SH3YL1 | 3 | -0.619 | 69.6 | -0.731 | inactive
GPM6B | 1 | 1.09 | 104 | 0.657 | inactive
GPM6B | 2 | -0.03 | 81.3 | 0.573 | inactive
GPM6B | 3 | 0.203 | 85.9 | 0.17 | inactive
GAN | 1 | 0.652 | 94.9 | 0.0275 | inactive
GAN | 2 | 1.14 | 104 | 1.19 | inactive
GAN | 3 | 0.201 | 85.9 | -0.357 | inactive
CTU1 | 1 | 1.25 | 107 | 0.28 | inactive
CTU1 | 2 | -0.577 | 70.4 | -1.28 | inactive
CTU1 | 3 | -0.119 | 79.5 | -1.03 | inactive
ALKBH5 | 1 | 1.99 | 121 | 1.92 | inactive
ALKBH5 | 2 | 0.151 | 84.9 | -0.0396 | inactive
ALKBH5 | 3 | -0.173 | 78.4 | -0.256 | inactive

Sorted by “total luciferase, z-score” (descending): 6 of the entries above
target gene | reagent no. | total luciferase, z-score | total luciferase, % of control | luciferase per cell, z-score | Outcome
TPM2 | 1 | 3.64 | 154 | 3.1 | active
CSTPP1 | 3 | 2.05 | 123 | 1.42 | inactive
COMMD3 | 1 | 0.194 | 85.7 | 0.224 | inactive
CSTPP1 | 2 | -0.355 | 74.8 | -0.55 | inactive
TPM2 | 2 | -0.535 | 71.2 | 0.163 | inactive
TPM2 | 3 | -0.649 | 69 | -0.722 | inactive
